The supplement of paper PMC7238544
Counter-ions that a name gives are not always drawn. ± gives the standard deviation of the averaged measurements. The list shows a part of the results. The data scatter; read single values as rough.

Legend:
[1] = tested on: hAMSC donor 1; test: Hoechst total cell count ratio vs vehicle control; higher = more cells (less toxicity)
[2] = tested on: hAMSC donor 2; test: as above
[3] = tested on: hAMSC donor 2; test: transgenic luciferase activity (RLU/mg protein) fold change vs vehicle control (ratio); higher = more transgene expression
[4] = tested on: hAMSC donor 1; test: transfection efficiency (EGFP+ cells / Hoechst count) fold change vs vehicle control (ratio); hAMSC are human adipose-derived mesenchymal stem cells given an EGFP-luciferase plasmid by lipofection; higher = enhanced transfection
[5] = tested on: hAMSC donor 2; test: as above
[6] = priming compound concentration 0.2 µM
[7] = priming compound concentration 1.7 µM
[8] = priming compound concentration 13 µM

Compound	Hoechst total cell count ratio [1, 6]	Hoechst total cell count ratio [1, 7]	Hoechst total cell count ratio [1, 8]	Hoechst total cell count ratio [2, 6]	Hoechst total cell count ratio [2, 7]	Hoechst total cell count ratio [2, 8]	transgenic luciferase activity [3, 8]	transfection efficiency [4, 6]	transfection efficiency [4, 7]	transfection efficiency [4, 8]	transfection efficiency [5, 6]	transfection efficiency [5, 7]	transfection efficiency [5, 8]	transgenic luciferase activity [3, 7]
O=C(NCCO[N+](=O)[O-])c1cccnc1 [Nicorandil]	1.47 ± 0.2	1.22 ± 0.12	1.82 ± 0.17	1.37 ± 0.065	1.05 ± 0.071	1.03 ± 0.024	0.584 ± 0.2	1.04 ± 0.02	1.36 ± 0.25	0.654 ± 0.33	0.848 ± 0.23	1.3 ± 0.2	1.05 ± 0.027	–
c1ccc(-c2ccc(C(c3ccccc3)n3ccnc3)cc2)cc1 (stereo not drawn) [Bifonazole]	1.07 ± 0.044	1.41 ± 0.12	1.33 ± 0.071	0.952 ± 0.14	1.12 ± 0.093	1.14 ± 0.15	0.612 ± 0.2	0.858 ± 0.1	0.724 ± 0.12	0.875 ± 0.2	1.29 ± 0.26	0.841 ± 0.13	1.16 ± 0.12	–
CN1CCN2c3ncccc3Cc3ccccc3C2C1 (stereo not drawn) [Mirtazapine]	1.41 ± 0.18	1.22 ± 0.38	1.66 ± 0.41	1.02 ± 0.11	1.04 ± 0.15	1.05 ± 0.054	0.66 ± 0.18	0.88 ± 0.26	1.18 ± 0.28	0.716 ± 0.21	1.1 ± 0.19	1.24 ± 0.14	0.951 ± 0.11	–
Cc1ccc(O)c([C@H](CCN(C(C)C)C(C)C)c2ccccc2)c1 [Tolterodine tartrate]	1.01 ± 0.1	1.49 ± 0.22	1.34 ± 0.034	0.643 ± 0.21	1.15 ± 0.043	1.08 ± 0.051	0.647 ± 0.11	1.14 ± 0.19	0.672 ± 0.27	0.944 ± 0.018	1.38 ± 0.18	0.805 ± 0.045	0.929 ± 0.17	–
CC(C)c1nc(CN(C)C(=O)N[C@H](C(=O)N[C@@H](Cc2ccccc2)C[C@H](O)[C@H](Cc2ccccc2)NC(=O)OCc2cncs2)C(C)C)cs1 [Ritonavir]	1.68 ± 0.097	1.3 ± 0.12	1.59 ± 0.039	1.45 ± 0.053	1.07 ± 0.059	1.12 ± 0.068	0.635 ± 0.19	0.81 ± 0.1	1.38 ± 0.49	0.859 ± 0.21	0.994 ± 0.27	1.07 ± 0.23	0.981 ± 0.15	–
O=C1[C@H]2CCCC[C@H]2C(=O)N1CCCCN1CCN(c2nsc3ccccc23)CC1 [Perospirone hydrochloride]	1.09 ± 0.038	1.38 ± 0.43	1.39 ± 0.044	0.856 ± 0.13	1.03 ± 0.045	1.03 ± 0.09	0.472 ± 0.018	0.816 ± 0.14	0.767 ± 0.25	0.902 ± 0.052	1.05 ± 0.25	1.11 ± 0.068	1.2 ± 0.2	–
O=c1c(O[C@@H]2O[C@H](CO)[C@H](O)[C@H](O)[C@H]2O)c(-c2ccc(O)c(O)c2)oc2cc(O)cc(O)c12 [Hyperoside]	0.984 ± 0.12	1.38 ± 0.28	1.36 ± 0.021	0.874 ± 0.17	1.18 ± 0.12	0.987 ± 0.13	0.445 ± 0.23	1 ± 0.36	0.7 ± 0.18	0.796 ± 0.14	1.02 ± 0.17	1.05 ± 0.094	1.14 ± 0.18	–
CC(C)(C)NCC(O)c1ccc(O)c(CO)c1 (stereo not drawn) [Salbutamol sulfate]	1.1 ± 0.32	1.53 ± 0.09	1.4 ± 0.25	0.86 ± 0.23	1.1 ± 0.034	0.961 ± 0.067	1.12 ± 0.12	1.05 ± 0.43	0.629 ± 0.16	0.904 ± 0.34	0.972 ± 0.25	0.951 ± 0.093	0.993 ± 0.22	–
CCCCCNC(=N)N/N=C/c1c[nH]c2ccc(OC)cc12 [Tegaserod maleate]	1.46 ± 0.26	1.22 ± 0.13	0.316 ± 0.13	1 ± 0.11	1.02 ± 0.077	0.206 ± 0.027	0.0159 ± 0.012	0.953 ± 0.25	1.22 ± 0.36	0.0925 ± 0.12	1.04 ± 0.25	1.14 ± 0.17	0.0987 ± 0.05	–
CCc1nn(CCCN2CCN(c3cccc(Cl)c3)CC2)c(=O)n1CCOc1ccccc1 [Nefazodone hydrochloride]	1.34 ± 0.34	1.27 ± 0.1	1.66 ± 0.38	1.07 ± 0.031	1.13 ± 0.072	1.06 ± 0.042	0.591 ± 0.077	1.02 ± 0.2	1.34 ± 0.35	0.589 ± 0.044	1.05 ± 0.15	1.26 ± 0.36	0.83 ± 0.06	–
CC[N+](C)(CC)CCOC(=O)C(O)(c1ccccc1)C1CCCCC1 (stereo not drawn) [Oxyphenonium bromide]	1.6 ± 0.052	1.3 ± 0.099	2.08 ± 0.17	1.18 ± 0.21	1.17 ± 0.017	0.984 ± 0.017	0.733 ± 0.12	0.833 ± 0.21	0.978 ± 0.19	0.365 ± 0.026	1.06 ± 0.18	1.31 ± 0.18	0.882 ± 0.11	–
O=C1Nc2ccccc2/C1=C1/Nc2ccccc2C1=O [Indirubin]	1.66 ± 0.019	1.48 ± 0.058	1.62 ± 0.22	0.963 ± 0.066	0.968 ± 0.054	1.08 ± 0.12	–	1.12 ± 0.34	1.13 ± 0.27	0.732 ± 0.14	1.02 ± 0.14	1.32 ± 0.073	1.31 ± 0.17	0.599 ± 0.034
Fc1ccc([C@@H]2CCNC[C@H]2COc2ccc3c(c2)OCO3)cc1 [Paroxetine maleate]	1.08 ± 0.063	1.48 ± 0.19	1.47 ± 0.044	1.01 ± 0.39	1.18 ± 0.014	1.05 ± 0.12	0.474 ± 0.013	0.947 ± 0.11	0.733 ± 0.21	0.659 ± 0.21	1.22 ± 0.21	1.09 ± 0.084	0.831 ± 0.085	–
CN(C/C=C/C#CC(C)(C)C)Cc1cccc2ccccc12 [Terbinafine hydrochloride]	1.608 ± 0.0092	1.3 ± 0.15	1.26 ± 0.048	1.22 ± 0.13	1.23 ± 0.025	1.38 ± 0.23	–	0.954 ± 0.12	1.29 ± 0.23	1.06 ± 0.23	0.998 ± 0.17	1.26 ± 0.056	1.41 ± 0.15	0.561 ± 0.1
CN(C)CCCSc1ccccc1NC(=O)/C=C/c1ccccc1 [Cinanserin]	0.954 ± 0.26	1.19 ± 0.12	1.15 ± 0.038	1.06 ± 0.3	0.983 ± 0.01	1.08 ± 0.065	0.693 ± 0.16	1.19 ± 0.52	0.759 ± 0.024	0.825 ± 0.18	1.07 ± 0.067	1.22 ± 0.035	0.928 ± 0.13	–
Clc1ccccc1CN1CCc2sccc2C1 [Ticlopidine hydrochloride]	1.66 ± 0.18	1.35 ± 0.19	1.29 ± 0.095	0.985 ± 0.23	1.12 ± 0.1	1.28 ± 0.1	–	0.829 ± 0.26	1.04 ± 0.11	1.25 ± 0.15	1.05 ± 0.11	1.29 ± 0.11	1.32 ± 0.38	0.431 ± 0.011

2 compounds drawn at random from the list so far, as already listed:
Compound	Hoechst total cell count ratio [1, 6]	Hoechst total cell count ratio [1, 7]	Hoechst total cell count ratio [1, 8]	Hoechst total cell count ratio [2, 6]	Hoechst total cell count ratio [2, 7]	Hoechst total cell count ratio [2, 8]	transgenic luciferase activity [3, 8]	transfection efficiency [4, 6]	transfection efficiency [4, 7]	transfection efficiency [4, 8]	transfection efficiency [5, 6]	transfection efficiency [5, 7]	transfection efficiency [5, 8]	transgenic luciferase activity [3, 7]
O=c1c(O[C@@H]2O[C@H](CO)[C@H](O)[C@H](O)[C@H]2O)c(-c2ccc(O)c(O)c2)oc2cc(O)cc(O)c12 [Hyperoside]	0.984 ± 0.12	1.38 ± 0.28	1.36 ± 0.021	0.874 ± 0.17	1.18 ± 0.12	0.987 ± 0.13	0.445 ± 0.23	1 ± 0.36	0.7 ± 0.18	0.796 ± 0.14	1.02 ± 0.17	1.05 ± 0.094	1.14 ± 0.18	–
CN(C/C=C/C#CC(C)(C)C)Cc1cccc2ccccc12 [Terbinafine hydrochloride]	1.608 ± 0.0092	1.3 ± 0.15	1.26 ± 0.048	1.22 ± 0.13	1.23 ± 0.025	1.38 ± 0.23	–	0.954 ± 0.12	1.29 ± 0.23	1.06 ± 0.23	0.998 ± 0.17	1.26 ± 0.056	1.41 ± 0.15	0.561 ± 0.1
